# From the supplement of paper PMC11237882
# This is one part of the list. Values are worked out from sequencing counts and are noisy.
# Target: T1, Homer1 EVH1 domain
# T1 chain: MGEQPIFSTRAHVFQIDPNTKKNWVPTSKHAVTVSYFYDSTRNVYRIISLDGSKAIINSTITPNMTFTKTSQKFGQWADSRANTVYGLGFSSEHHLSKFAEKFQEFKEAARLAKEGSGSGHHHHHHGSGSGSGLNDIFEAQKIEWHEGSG
# Assay: enrichment score (AUC of log2 frequency ratio across FACS sorting rounds) (log2 AUC); higher = stronger enrichment for Homer1 EVH1 binding
row,Binder,enrichment score
1,ISLTVIEKVQIAAIVLGSLFLVASISWLIWSSLSPS,0.159
2,VASWIMGVMHSMSQVIFALTLPFCGPYEVDSFFCDL,1.31
3,PEPGQDSVGPEPSEVRLLPGGGDPDITYGSPWLAFP,3.03
4,MVLGSVLLLCILFTCFCVTAKRTVKKCFPEDIAQQN,0.357
5,MKSMMPTDEQFAAIIVLGFATLSILFAFILQYFLMK,2.64
6,MANTTGEPEEVSGALSPPSASAYVKLVLLGLIMCVY,3.31
7,PMLRGRFQRPKPNLSRAGKKSVLSQGKTDSESKNSH,0.0131
8,YRGSFQGFYPNSTYFYLFSLELFCLYLSFICKNSIR,0.967
9,FPVALGLGVAVGAEAAAIMVNLLQIVRDHWVHVLVP,1.26
10,VGGAGAGLHPVVYPCTALLLLCLFATIITYILNHSS,3.33
11,DLVLASSTAPKALAVLLVHAHEIGYIVCLIQMFFIH,0.331
12,SFIPDGFYIYYPMLVVILCIATYFSLGTRCLNLLGF,4
13,SFKELGLLLMYLAVGIFVFSALGYTMEQSHPETLFK,1.58
14,LVAFFLLIQACPWTYYVYGLLPLPIWYAVLREFQVI,-0.986
15,SNWWIQVTSLRIFVWLLLLSFMQVIAIVLYLMMPIV,2.06
16,LFCVGPLPCTLLLTLGYVLYASAMTLLTERGKLHQL,0.334
17,AVFFATYLTLACCSGPRRHFPWNLILLTVFTLSMAY,0.149
18,TVDYSDNLTRLCLGLSAVFLCGAAANAIRVYLMQTS,2.42
19,HVAVIINYLGHCISLVALLVAFVLFLRLRSIRCLRN,2.56
20,ALNPLNILGINFLGRRLSLSITMGCTALFFLLLNIC,1.27
21,LLSGERLDTWICSLLGSLMVGLSGVFPLLVIPLEMG,-2.54
22,EFQAPFGMEAEYAHPLETLILGTGFFIGIVLLCDHV,2.16

row,Binder,enrichment score
1,RGSLIALCISNLFFMLPWQFAQFVLLTQIASLFAVY,2.72e-05
2,REVARDWLRVGSVLDKLLFHIYLLAVLAYSITLVML,0.747
3,TQDRFSPDLLGLQASSALAWLTLEVLAILLSLYLVN,4.27
4,PGNKENNSNMVGTVLMLFLITLLYAAINFSCWSAVK,3.86
5,IGVDGGKNISYAGCLSQLFIFTFLGATECFLLAAMA,2.23
6,TSGPEAILPRRLPKVFKRQRTTSELFSVFPVLLFLN,0.697
7,NFVQYACFGLFGIIALQTIAYSILWDLKFLMRNLAL,1.93
8,FYNPVVPEAQKREMGAGLYVGWAAAALQLLGGALLC,2.93
9,MKAMPWNWTCLLSHLLMVGMGSSTLLTRQPAPLSQK,-1.23
10,FQTLEEVPDYVKKATPFFISLMLLELVVSCILKGKP,3.24
11,GDEPLPYQPTFSDDWQLPEPSSQAPLGYQDPVSLRP,1.6
12,ILGTAVALFLGMCVVHNFKGTQGSPSKPKPEDPRGV,1.13
13,MWLPRFSSKTVTVLLLAQTTCLLLFIISRPGPSSPA,2.37
14,MRPLPGALGVAAAAALWLLLLLLPRTRADEHEHTYQ,3.38
15,ILGNTIFASFVGITKVVPILLAAASLVGGGLIALRL,2.53
16,SRLSDPQVWVDAGTQIFFSYAICLGCLTALGSYNNY,-0.486
17,MESPNRTTIQEFIFSAFPYSWVKSVVCFVPLLFIYA,1.11
18,VNKSVLTNYRFPSSLCVGLGQMVATVAVLWVGKALR,2.09
19,PPPLFHEGAPYPPPLFIRDTYNQSIPQPPPRKIKRP,5.44
20,TIEMPQQARQKLQNLFINFCLILICLLLICIIVMLL,-2.27
21,DLITCHLALVHLVMLLTVSFLASPDLFESQYFQNDF,-0.594
22,KKLKLGARESAKLAMICSGVSLLCFSTLFIVGCESI,2.83
